# Experimental data as given in patent US6676941B2 (Board of Regents, The University of Texas System, priority 1999, dated 2004).
# Some entries share one result that the patent states for a list of compounds.
# System: VEGF-induced permeability
# Assay: Miles permeability assay
# Format: in vivo, guinea pig
# Conditions: Miles assay in guinea pigs
substance,measurement,value
"2C3: anti-VEGF monoclonal antibody, IgG2a,k, raised to recombinant human VEGF; hybridoma ATCC PTA 1595; blocks VEGF binding to VEGFR2, not VEGFR1",Molar excess of IgG over VEGF at which VEGF-induced permeability was inhibited,≥ 10 fold molar excess over VEGF
